Experimental data published in publication PMC5853926.
Results are given in words; binding and its absence hold for the method and conditions named. Binding calls can cover weak binding; strength is not graded here.

Target: T1, EXO70B1 exocyst subunit, two-hybrid bait (Arabidopsis) (UniProt Q9FGH9)
T1 sequence: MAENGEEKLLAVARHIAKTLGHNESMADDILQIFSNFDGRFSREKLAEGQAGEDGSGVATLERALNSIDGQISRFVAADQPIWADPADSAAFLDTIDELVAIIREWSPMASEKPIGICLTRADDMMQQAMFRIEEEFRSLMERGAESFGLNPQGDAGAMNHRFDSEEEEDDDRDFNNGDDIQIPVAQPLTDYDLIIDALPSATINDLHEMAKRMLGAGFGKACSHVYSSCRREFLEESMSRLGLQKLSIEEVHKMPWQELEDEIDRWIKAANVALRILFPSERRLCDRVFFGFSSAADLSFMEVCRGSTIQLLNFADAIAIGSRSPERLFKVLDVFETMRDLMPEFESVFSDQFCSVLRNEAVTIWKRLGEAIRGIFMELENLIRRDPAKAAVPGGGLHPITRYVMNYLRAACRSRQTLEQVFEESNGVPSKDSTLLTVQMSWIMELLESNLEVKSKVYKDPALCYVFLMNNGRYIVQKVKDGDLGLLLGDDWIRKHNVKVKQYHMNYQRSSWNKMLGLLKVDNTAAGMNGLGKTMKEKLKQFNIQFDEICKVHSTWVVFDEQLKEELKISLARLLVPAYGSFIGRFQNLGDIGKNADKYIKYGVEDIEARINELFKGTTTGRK
Assay: two-hybrid; RIN4 constructs and NOI6 in pGADT7 (prey), exocyst subunits in bait vectors; yeast plated in a 10x dilution series from OD600=0.1 on plates without leucine, tryptophan, histidine and adenine

binding: binds weakly
Substance: N-terminal RIN4 fragment (N-RCS2), two-hybrid prey (Arabidopsis) (domain or fragment)
